Here are results for five sequences from patent US20080248467.

The chains behind the UniProt entries cited, without tags or fusion partners. Where a name states a change or a piece, a line headed by the entry shows the natural chain unless it says otherwise.
UniProt P24610: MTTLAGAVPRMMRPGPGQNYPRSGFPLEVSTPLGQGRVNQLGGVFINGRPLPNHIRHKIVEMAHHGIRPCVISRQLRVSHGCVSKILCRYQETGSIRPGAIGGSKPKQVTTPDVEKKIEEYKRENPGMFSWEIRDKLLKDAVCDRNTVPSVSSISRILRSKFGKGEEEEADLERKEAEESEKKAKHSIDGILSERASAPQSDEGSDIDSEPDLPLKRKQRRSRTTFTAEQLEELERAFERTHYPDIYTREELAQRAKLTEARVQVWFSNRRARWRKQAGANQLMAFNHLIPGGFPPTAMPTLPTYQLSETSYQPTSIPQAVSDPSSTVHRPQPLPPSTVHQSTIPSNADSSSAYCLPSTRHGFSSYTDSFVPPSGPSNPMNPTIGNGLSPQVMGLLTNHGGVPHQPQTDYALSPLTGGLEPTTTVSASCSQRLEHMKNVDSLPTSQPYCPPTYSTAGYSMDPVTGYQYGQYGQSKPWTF
UniProt Q12778: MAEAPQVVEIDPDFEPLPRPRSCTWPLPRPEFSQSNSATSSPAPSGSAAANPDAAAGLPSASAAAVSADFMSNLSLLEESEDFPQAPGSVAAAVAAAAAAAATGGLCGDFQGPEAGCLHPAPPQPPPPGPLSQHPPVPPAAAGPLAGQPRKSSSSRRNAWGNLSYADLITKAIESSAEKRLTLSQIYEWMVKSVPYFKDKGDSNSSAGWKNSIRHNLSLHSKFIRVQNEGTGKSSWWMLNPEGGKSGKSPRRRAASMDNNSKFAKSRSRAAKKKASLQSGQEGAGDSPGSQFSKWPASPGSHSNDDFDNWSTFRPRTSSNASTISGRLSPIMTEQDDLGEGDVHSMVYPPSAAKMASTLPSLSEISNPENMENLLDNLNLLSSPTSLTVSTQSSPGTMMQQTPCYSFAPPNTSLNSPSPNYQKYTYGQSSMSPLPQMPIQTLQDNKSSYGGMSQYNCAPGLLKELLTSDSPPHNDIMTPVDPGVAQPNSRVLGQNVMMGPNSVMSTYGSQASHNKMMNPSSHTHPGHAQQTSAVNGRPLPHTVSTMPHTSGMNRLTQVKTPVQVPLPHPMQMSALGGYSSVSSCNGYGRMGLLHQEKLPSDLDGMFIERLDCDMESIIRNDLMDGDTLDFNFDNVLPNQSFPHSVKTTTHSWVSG

The target of data set [1] is Pax3 (GST fusion or 6xHis) (UniProt P24610). The data set can be described thus: EMSA. The conditions noted are these: 25 C; purified recombinant protein; protein details: GST-Pax3 or 6xHis-Pax3, bacterially expressed; label: 32P. A general note: In EMSA bound probe runs differently from free probe, usually more slowly.
The target of data set [2] is FKHR (FOXO1) (UniProt Q12778). Nature of the data set: SELEX. The conditions noted are these: affinity rank FBS1>FBS2>FBS3; protein form not stated; purified recombinant protein.

Construct, isoform or probe ends are uncertain for at least one entry.

In the case of “AAGCTTTGTAGAGTAATCATGTATTCCAAACTCAGGCTTACATTTGAATGTTGGCTACATATGTATGAGTTTTCAACTTCCAGGAGAAAACGTCTCTTTAAAAGAGAACAACCAAAAGCTAACAGAAATACAAGTGTGACATTGGCCTTAGTTCGACCAAGAAGCAATTCATCTTGTTTCTTCCTTTGTGGTATACAGATAAGAAAAATAAAATCACTACAACGAAGCAAAATCTCTTCAGCGTCTCTAATACATCTTCCAAATCAGTGTGTCTGACCTTTTCTTAAGACTTTAACCATCACAAGGAAACCAGTGGGGAGGGAGTCATGTGCTGCCTAGTAGTTAAAGGGCAGGAGAATTCACTGGTGTGAGAAGGGATTAGTGAGAGCTGGAAGAGAGGACCAGCCCCTCCCAGTGTGAGGAATCTGGCTTGGGATTTACTGTCTGGCAGAAAATCTCTTCGGGCAATTAACAGCT (double strand) [Trp-1 (1) promoter region, one Pax3 site]”, the binding result in data set [1] is recorded as “binds”.

Turning to “AAGCTTTGTAGAGTAATCATGTATTCCAAACTCAGGCTTACATTTGAATGTTGGCTACATATGTATGAGTTTTCAACTTCCAGGAGAAAACGTCTCTTTAAAAGAGAACAACCAAAAGCTAACAGAAATACAAGTGTGACATTGGCCTTAGTTCGACCAAGAAGCAATTCATCTTGTTTCTTCCTTTGTGGTATACAGATAAGAAAAATAAAATCACTACAACGAAGCAAAATCTCTTCAGCGTCTCTAATACATCTTCCAAATCAGTGTGTCTGACCTTTTCTTAAGACTTTAACCATCACAAGGAAACCAGTGGGGAGGGAGTCATGTGCTGCCTAGTAGTTAAAGGGCAGGAGAATTCACTGGTGTGAGAAGGGATTAGTGAGAGCTGGAAGAGAGGACCAGCCCCTCCCAGTGTGAGGAATCTGGCTTGGGATTTACTGTCTGGCAGAAAATCTCTTCGGGCAATTAACAGCT (double strand) [Trp-1 (2) promoter region, two Pax3 sites]”, the binding result in data set [1] is listed as “binds”.

As for “ATCCAGTGACGATTAGCACCGTCACGCTTAGATATG / TCGACATATCAAAGCGTGACGGTGCTAATCGTCACTG [1x Pax3 oligo]”, the binding result in data set [1] is on record as “binds”.

For the sequence “GTAAACAACAACATGTTGAC (double strand) [FBS1]”, in data set [2], the selection result was “selected”.

As for “TCTACCTAAATTCCCTGCTGAGGAGCTCTCAGGGGGGTTTCCTCCAGCTCCCTCCGGATTTGTCTGCCCAGTTGGAGGTTTGATCTGCCTTATCCCTCCTTCCCACAGCGCACAGGTAAAAAAAGAAAATGAGCTCAGAGAGGTGCCATCTTTTGCCCGAAGTCACACAGCGAATGTCCACGGATTGGAGGGCAGTGGTGGAATTCCTGGCGGCCCTTGGACGCCCATTTGTCTGCCCGCTTCTGATACCCGGGTTCGGAGAATAGGCCTCTAACAAGCGGCCCATTAGAAGGAATTGTCACTCCTCCGGGAGTGAGGTTGTCCCATTAGGGCGAATTGTCATTCCTCCTGGAGCGAGGTTGTCCTGCTCCGCGAAGGCTGAGTGCCGGGCCGAGAGCAATTAACGCGGCTCCGGCGCGGGCAGCCGCCTCTGCCCCGGGCAGCGGGGGCGGGGCGCCCGGCGCGGCTGGAGCCGGTCACCCGGCGCAGCCCCTTCCCCCGGAGCCCGCCTTTCATCTCCCCGCGCCTGGCGCCTACCCGCAGCCCTGGCCCGTCTACAGCCTTCTCTGCCCCTCCCCCTGCCCC (double strand) [Msx2 promoter region]”, the binding result in data set [1] was “binds”.
